Results reported in paper PMC10008703.
Results are given in words; binding and its absence hold for the method and conditions named. Binding seen in cells or lysates may run through a third protein. These calls come from enrichment with a bait or labelling near it, and not all partners need be listed.

By UniProt entry, the sequences of proteins in these tests, tags left out. Residues count along the entry.
UniProt P31350: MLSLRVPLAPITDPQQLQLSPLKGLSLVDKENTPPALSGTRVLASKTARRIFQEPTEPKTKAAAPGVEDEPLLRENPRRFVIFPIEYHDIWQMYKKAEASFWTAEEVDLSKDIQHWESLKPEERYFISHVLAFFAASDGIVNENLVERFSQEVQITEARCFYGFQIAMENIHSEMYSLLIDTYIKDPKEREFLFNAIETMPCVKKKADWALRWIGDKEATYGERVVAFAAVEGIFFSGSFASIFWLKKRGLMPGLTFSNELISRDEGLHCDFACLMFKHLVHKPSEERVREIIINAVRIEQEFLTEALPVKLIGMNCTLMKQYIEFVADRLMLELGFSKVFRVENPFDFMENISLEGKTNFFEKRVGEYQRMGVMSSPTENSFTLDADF
UniProt P78559: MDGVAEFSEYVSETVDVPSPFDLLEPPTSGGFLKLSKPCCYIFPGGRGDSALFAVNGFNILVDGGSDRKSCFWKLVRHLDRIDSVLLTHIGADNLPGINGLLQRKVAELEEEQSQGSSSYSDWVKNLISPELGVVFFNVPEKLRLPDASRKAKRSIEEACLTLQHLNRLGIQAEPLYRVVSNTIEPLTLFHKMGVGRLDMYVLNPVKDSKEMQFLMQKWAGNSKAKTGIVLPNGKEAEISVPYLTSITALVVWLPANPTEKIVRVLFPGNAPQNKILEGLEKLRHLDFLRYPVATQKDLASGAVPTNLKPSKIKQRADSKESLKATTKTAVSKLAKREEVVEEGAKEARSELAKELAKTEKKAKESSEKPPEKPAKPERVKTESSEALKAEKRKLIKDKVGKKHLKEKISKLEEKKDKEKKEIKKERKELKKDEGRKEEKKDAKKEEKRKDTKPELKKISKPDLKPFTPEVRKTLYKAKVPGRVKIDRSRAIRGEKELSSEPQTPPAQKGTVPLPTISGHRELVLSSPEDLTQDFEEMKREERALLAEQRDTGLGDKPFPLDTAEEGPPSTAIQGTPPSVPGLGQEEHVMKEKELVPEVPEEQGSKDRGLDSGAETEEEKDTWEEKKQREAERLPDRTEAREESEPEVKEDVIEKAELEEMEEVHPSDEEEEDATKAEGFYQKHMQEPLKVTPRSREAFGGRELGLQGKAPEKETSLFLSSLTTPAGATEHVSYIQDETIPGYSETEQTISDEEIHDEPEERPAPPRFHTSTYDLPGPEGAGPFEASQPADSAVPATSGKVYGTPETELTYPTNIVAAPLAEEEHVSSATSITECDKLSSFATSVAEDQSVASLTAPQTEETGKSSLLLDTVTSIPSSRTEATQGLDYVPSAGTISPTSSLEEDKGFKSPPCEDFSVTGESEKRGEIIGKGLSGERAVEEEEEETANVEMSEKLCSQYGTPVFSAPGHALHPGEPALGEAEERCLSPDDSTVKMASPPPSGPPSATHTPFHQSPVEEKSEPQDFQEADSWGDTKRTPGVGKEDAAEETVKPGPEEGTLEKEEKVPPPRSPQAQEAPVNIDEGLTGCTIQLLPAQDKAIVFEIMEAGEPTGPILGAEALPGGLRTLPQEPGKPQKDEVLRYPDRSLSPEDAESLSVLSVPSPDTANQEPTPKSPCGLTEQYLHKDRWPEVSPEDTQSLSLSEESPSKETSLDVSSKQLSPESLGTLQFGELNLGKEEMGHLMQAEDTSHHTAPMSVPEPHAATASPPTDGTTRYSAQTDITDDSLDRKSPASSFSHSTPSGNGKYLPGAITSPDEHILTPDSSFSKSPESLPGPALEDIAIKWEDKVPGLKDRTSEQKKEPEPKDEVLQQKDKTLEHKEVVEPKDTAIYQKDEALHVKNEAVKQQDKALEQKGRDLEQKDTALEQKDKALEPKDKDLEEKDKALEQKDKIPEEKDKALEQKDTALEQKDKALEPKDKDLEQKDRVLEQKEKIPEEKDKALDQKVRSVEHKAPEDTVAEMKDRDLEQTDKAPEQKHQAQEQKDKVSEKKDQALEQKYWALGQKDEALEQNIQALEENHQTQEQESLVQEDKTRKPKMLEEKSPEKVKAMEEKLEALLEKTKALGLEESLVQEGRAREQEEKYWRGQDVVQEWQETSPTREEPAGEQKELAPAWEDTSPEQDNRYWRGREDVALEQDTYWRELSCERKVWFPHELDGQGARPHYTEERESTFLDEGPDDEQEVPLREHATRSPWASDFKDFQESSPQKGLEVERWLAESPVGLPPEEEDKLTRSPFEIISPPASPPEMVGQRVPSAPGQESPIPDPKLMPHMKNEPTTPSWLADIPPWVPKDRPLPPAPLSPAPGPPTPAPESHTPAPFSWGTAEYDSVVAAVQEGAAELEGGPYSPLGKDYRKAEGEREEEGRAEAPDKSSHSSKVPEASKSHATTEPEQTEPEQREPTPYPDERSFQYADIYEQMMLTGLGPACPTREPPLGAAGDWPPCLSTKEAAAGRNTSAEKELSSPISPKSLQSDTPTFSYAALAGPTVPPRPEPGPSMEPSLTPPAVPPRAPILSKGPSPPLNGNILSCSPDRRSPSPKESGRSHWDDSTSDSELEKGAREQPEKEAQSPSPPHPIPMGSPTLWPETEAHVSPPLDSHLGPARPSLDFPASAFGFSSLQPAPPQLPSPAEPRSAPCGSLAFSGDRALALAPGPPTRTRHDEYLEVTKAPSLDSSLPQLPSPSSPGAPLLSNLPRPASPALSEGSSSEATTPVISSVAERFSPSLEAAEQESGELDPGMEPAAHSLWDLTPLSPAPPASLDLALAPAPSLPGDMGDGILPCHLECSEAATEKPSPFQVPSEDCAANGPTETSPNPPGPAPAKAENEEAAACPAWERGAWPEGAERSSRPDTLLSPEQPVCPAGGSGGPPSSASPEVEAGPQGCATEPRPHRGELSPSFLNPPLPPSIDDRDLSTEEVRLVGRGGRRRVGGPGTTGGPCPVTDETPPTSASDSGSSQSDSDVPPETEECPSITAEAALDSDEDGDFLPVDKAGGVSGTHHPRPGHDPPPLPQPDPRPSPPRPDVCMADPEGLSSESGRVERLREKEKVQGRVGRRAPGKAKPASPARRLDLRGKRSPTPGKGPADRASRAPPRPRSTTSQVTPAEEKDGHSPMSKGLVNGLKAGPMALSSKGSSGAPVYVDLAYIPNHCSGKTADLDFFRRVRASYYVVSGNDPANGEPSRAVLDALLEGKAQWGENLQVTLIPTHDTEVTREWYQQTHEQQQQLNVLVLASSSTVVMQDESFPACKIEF
UniProt P01100: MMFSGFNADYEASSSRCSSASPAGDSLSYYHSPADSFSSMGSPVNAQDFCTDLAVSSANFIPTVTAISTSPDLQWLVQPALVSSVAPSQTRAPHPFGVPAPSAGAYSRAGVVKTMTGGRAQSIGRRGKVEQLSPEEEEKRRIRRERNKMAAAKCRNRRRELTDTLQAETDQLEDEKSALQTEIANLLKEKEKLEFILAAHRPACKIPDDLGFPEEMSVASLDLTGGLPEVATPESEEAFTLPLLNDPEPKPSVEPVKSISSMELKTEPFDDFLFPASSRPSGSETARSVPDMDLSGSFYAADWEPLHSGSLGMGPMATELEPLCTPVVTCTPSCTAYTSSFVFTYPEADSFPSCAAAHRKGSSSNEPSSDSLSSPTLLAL
UniProt P08575, residues 26-1306: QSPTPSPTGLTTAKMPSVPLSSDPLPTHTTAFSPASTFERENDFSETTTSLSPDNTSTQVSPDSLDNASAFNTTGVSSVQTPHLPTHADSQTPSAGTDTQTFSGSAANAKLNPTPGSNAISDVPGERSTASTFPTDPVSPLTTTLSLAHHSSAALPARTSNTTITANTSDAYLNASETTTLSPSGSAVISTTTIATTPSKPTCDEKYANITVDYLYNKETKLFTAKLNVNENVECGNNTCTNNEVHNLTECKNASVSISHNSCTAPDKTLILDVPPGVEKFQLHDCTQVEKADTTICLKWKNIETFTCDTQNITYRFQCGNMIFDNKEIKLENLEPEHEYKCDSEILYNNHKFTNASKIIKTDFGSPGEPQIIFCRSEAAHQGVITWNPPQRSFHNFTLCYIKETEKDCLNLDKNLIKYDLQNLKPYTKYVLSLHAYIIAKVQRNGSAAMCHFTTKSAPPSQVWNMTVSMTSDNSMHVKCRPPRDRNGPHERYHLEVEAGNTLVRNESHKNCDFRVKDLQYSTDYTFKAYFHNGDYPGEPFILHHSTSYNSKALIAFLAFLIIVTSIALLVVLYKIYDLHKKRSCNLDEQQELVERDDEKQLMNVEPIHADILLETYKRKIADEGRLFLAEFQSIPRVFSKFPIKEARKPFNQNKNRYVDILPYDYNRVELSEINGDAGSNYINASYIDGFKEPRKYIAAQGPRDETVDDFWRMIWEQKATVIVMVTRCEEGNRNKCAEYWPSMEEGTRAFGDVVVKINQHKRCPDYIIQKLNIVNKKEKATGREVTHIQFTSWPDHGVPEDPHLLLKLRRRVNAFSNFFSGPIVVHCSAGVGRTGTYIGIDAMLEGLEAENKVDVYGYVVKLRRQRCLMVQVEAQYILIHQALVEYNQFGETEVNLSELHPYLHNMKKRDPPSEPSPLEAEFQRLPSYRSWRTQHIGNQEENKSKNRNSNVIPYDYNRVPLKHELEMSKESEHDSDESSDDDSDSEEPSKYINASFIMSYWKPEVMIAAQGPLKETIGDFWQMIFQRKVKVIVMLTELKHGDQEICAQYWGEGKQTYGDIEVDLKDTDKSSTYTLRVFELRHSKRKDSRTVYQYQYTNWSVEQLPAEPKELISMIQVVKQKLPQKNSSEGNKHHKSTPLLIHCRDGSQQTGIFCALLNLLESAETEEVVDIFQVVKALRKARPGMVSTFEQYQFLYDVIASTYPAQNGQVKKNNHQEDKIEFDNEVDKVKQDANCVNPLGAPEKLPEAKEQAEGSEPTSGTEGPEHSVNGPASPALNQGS
UniProt Q16186: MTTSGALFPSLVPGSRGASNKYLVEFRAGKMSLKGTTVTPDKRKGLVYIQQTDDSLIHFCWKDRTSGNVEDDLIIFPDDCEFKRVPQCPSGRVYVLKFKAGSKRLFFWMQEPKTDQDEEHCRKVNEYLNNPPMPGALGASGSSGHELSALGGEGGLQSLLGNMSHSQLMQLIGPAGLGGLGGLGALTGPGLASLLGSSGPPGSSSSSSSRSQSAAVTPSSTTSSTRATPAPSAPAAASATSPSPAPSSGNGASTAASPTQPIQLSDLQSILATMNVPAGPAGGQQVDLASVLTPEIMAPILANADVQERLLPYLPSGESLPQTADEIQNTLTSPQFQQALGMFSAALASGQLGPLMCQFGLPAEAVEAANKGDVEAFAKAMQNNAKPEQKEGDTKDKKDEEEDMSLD
UniProt P15104: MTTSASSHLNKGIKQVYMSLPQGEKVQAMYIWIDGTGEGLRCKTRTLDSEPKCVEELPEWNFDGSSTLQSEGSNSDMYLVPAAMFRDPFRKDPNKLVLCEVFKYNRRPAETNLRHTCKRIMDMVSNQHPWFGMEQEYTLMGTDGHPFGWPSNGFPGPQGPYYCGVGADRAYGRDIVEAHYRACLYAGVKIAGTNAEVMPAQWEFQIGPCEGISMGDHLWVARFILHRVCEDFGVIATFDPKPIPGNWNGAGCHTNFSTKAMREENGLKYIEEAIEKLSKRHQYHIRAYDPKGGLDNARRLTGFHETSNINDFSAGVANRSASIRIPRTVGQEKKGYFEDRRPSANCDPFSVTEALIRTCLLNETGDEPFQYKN

T1: RalA (human (endogenous in K562)) (UniProt P11233)
T1 sequence: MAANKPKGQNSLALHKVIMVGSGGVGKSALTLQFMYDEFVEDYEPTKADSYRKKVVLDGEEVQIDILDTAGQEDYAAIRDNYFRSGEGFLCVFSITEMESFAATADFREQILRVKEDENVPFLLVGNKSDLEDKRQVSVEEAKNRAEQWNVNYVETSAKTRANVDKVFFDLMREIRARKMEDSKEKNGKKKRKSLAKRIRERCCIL


Target: T1, RalA (human (endogenous in K562))
Assay: affinity purification with mass spectrometry; K562 lysate (137 mM NaCl, 20 mM Tris, 2 mM CaCl2, 1% Triton X-100, 2 mM PMSF) probed overnight with RalA antibodies, protein A/G beads, washed thrice; eluted proteins identified by LC-MS (2D nano-HPLC-MS/MS)

Molecule | binding
RABGAP1L (from UniProt Q5R372 1-815) | binds
RRM2 (from UniProt P31350 1-389) | binds
SMCHD1 (from UniProt A6NHR9 1-2005) | binds
DAPK2 (from UniProt Q9UIK4 1-370) | binds
MAP1A (from UniProt P78559 1-2803) | binds
FAT1 (from UniProt Q14517 22-4588) | binds
ADAR (protein, UniProt P55265 1-1226) MNPRQGYSLSGYYTHPFQGYEHRQLRYQQPGPGSSPSSFLLKQIEFLKGQLPEAPVIGKQTPSLPPSLPGLRPRFPVLLASSTRGRQVDIRGVPRGVHLRSQGLQRGFQHPSPRGRSLPQRGVDCLSSHFQELSIYQDQEQRILKFLEELGEGKATTAHDLSGKLGTPKKEINRVLYSLAKKGKLQKEAGTPPLWKIAVSTQAWNQHSGVVRPDGHSQGAPNSDPSLEPEDRNSTSVSEDLLEPFIAVSAQAWNQHSGVVRPDSHSQGSPNSDPGLEPEDSNSTSALEDPLEFLDMAEIKEKICDYLFNVSDSSALNLAKNIGLTKARDINAVLIDMERQGDVYRQGTTPPIWHLTDKKRERMQIKRNTNSVPETAPAAIPETKRNAEFLTCNIPTSNASNNMVTTEKVENGQEPVIKLENRQEARPEPARLKPPVHYNGPSKAGYVDFENGQWATDDIPDDLNSIRAAPGEFRAIMEMPSFYSHGLPRCSPYKKLTECQLKNPISGLLEYAQFASQTCEFNMIEQSGPPHEPRFKFQVVINGREFPPAEAGSKKVAKQDAAMKAMTILLEEAKAKDSGKSEESSHYSTEKESEKTAESQTPTPSATSFFSGKSPVTTLLECMHKLGNSCEFRLLSKEGPAHEPKFQYCVAVGAQTFPSVSAPSKKVAKQMAAEEAMKALHGEATNSMASDNQPEGMISESLDNLESMMPNKVRKIGELVRYLNTNPVGGLLEYARSHGFAAEFKLVDQSGPPHEPKFVYQAKVGGRWFPAVCAHSKKQGKQEAADAALRVLIGENEKAERMGFTEVTPVTGASLRRTMLLLSRSPEAQPKTLPLTGSTFHDQIAMLSHRCFNTLTNSFQPSLLGRKILAAIIMKKDSEDMGVVVSLGTGNRCVKGDSLSLKGETVNDCHAEIISRRGFIRFLYSELMKYNSQTAKDSIFEPAKGGEKLQIKKTVSFHLYISTAPCGDGALFDKSCSDRAMESTESRHYPVFENPKQGKLRTKVENGEGTIPVESSDIVPTWDGIRLGERLRTMSCSDKILRWNVLGLQGALLTHFLQPIYLKSVTLGYLFSQGHLTRAICCRVTRDGSAFEDGLRHPFIVNHPKVGRVSIYDSKRQSGKTKETSVNWCLADGYDLEILDGTRGTVDGPRNELSRVSKKNIFLLFKKLCSFRYRRDLLRLSYGEAKKAARDYETAKNYFKKGLKDMGYGNWISKPQEEKNFYLCPV | binds
PITPNB (protein, UniProt P48739 1-271) MVLIKEFRVVLPCSVQEYQVGQLYSVAEASKNETGGGEGIEVLKNEPYEKDGEKGQYTHKIYHLKSKVPAFVRMIAPEGSLVFHEKAWNAYPYCRTIVTNEYMKDDFFIKIETWHKPDLGTLENVHGLDPNTWKTVEIVHIDIADRSQVEPADYKADEDPALFQSVKTKRGPLGPNWKKELANSPDCPQMCAYKLVTIKFKWWGLQSKVENFIQKQEKRIFTNFHRQLFCWIDKWIDLTMEDIRRMEDETQKELETMRKRGSVRGTSAADV | binds

The next lines start with the values.

binding | Molecule
binds | ROCK2 (from UniProt O75116 1-1388)
binds | FOS (from UniProt P01100 1-380)
binds | PTPRC (from UniProt P08575 26-1306)
binds | ADRM1 (from UniProt Q16186 1-407)
binds | GLUL (from UniProt P15104 1-373)
binds | PYCR2 (protein, UniProt Q96C36 1-320) MSVGFIGAGQLAYALARGFTAAGILSAHKIIASSPEMNLPTVSALRKMGVNLTRSNKETVKHSDVLFLAVKPHIIPFILDEIGADVQARHIVVSCAAGVTISSVEKKLMAFQPAPKVIRCMTNTPVVVQEGATVYATGTHALVEDGQLLEQLMSSVGFCTEVEEDLIDAVTGLSGSGPAYAFMALDALADGGVKMGLPRRLAIQLGAQALLGAAKMLLDSEQHPCQLKDNVCSPGGATIHALHFLESGGFRSLLINAVEASCIRTRELQSMADQEKISPAALKKTLLDRVKLESPTVSTLTPSSPGKLLTRSLALGGKKD
